# Reference: PubChem BioAssay (EPA / NIEHS)
# Protein sequences, listed by entry. Tags and fused reporters are not part of them. Lines headed by an entry give the natural chain unless they say otherwise; changes in a name come on top.
# UniProt P19793: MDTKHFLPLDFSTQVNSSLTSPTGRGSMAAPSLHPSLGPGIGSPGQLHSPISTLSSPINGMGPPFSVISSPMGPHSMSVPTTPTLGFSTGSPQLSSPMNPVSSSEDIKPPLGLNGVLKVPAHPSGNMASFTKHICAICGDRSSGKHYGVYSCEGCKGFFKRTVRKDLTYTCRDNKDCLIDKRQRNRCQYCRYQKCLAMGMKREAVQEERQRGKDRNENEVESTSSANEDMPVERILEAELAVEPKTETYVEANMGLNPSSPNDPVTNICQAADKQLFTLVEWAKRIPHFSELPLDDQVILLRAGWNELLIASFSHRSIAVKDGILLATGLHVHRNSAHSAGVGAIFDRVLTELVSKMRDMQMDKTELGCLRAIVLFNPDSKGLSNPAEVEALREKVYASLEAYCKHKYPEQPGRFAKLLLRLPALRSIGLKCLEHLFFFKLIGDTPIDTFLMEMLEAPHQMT
# UniProt P04637, whole entry, looked up: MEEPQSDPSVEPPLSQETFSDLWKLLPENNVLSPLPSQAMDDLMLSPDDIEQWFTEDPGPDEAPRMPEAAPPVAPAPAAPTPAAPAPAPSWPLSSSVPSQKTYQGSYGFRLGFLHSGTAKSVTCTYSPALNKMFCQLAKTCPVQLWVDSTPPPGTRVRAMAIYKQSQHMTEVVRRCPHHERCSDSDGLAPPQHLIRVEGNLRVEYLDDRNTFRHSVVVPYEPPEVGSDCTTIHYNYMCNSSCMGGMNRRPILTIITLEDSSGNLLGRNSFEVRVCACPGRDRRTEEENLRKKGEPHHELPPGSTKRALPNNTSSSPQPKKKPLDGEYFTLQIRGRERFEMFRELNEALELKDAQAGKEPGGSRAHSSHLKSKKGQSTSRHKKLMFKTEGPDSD
# Several values for one entry are separate records, joined by “and”; a condition that tells them apart may be missing. Equal values may be shown once. Inconclusive results, whose numbers are uncertain, are shown with a selection of clear calls. For some of these results: Potencies beside an inconclusive call are fits to weak or partial responses and may not hold up. Some structures have more than one record in an assay (separate samples or runs), and their calls can disagree. Activity calls are given as the source filed them. The calls were made as follows: active = hit-call score of the fitted dose curve at least 0.9, where 1 is the maximum; inconclusive = response in the unintended direction; inactive = score below 0.9.
# How the values were obtained:
# [1] = target: Retinoic acid receptor RXR-alpha (Homo sapiens) (UniProt P19793); test: OT_NURR1_NURR1RXRa_1440: Odyssey Thera (OT) 24-hour HEK293T Protein Complementation Assay for Nurr1/retinoid X receptor (RXR) (AID 2283386)
# Outline: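 Cell-based binding reporter: HEK293T cells, 24 h exposure, fluorescence-detected fragment complementation, DMSO as baseline.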
# [2] = ATG_XTT_Cytotoxicity: Cytotoxicity Assessment in the Attagene TRANS-FACTORIAL HepG2 Assay (AID 2283584);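 as to AC50: XTT signal for cell number as viability in transfected HepG2 cells; cells exposed to compound for 24 h before reading; active means loss of viability signal versus DMSO baseline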
# Outline: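 HepG2 cells transiently transfected with GAL4-UAS multiple reporter units, dosed 24 h; cytotoxicity read by XTT as loss of signal versus DMSO baseline.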
# [3] = TOX21_p53_BLA_p2_viability: Viability Assessment in the Tox21 HCT-116 p53 Agonism Beta-lactamase Assay, Phase 2 (AID 2283591);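 also: actives lower the ATP signal meaning cytotoxicity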
# Outline: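 Cytotoxicity readout: CellTiter-Glo ATP luminescence, 30 min at room temperature, after the beta-lactamase read. Cells were HCT116 exposed 16 h at 37C to compounds pin-transferred at 217-fold dilution from DMSO stocks.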
# [4] = target: Cellular tumor antigen p53 (Homo sapiens) (UniProt P04637); test: TOX21_p53_BLA_p2_ratio: Tox21 HCT-116 p53 Agonism Beta-lactamase Assay, Ratio, Phase 2 (AID 2283592)
# Outline: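 First, HCT116 reporter cells settle for 5 h at 37C. Next, DMSO compound solutions are pinned in (217-fold dilution) and left 16 h. Finally, CCF4-AM substrate is loaded 2 h at room temperature and the 460/530 nm ratio read.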
# [5] = TOX21_p53_BLA_p3_viability: Viability Assessment in the Tox21 HCT-116 p53 Agonism Beta-lactamase Assay, Phase 3 (AID 2283593);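 also: cells exposed to compound for 16 h before reading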
# Outline: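 Cellular ATP was quantified by CellTiter-Glo luminescence, read after 30 min at room temperature. Beforehand, HCT116 cells (4000/well) received compound 5 h post-seeding, 217-fold diluted from DMSO, then incubated 16 h at 37C.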
# [6] = target: Cellular tumor antigen p53 (Homo sapiens) (UniProt P04637); test: TOX21_p53_BLA_p3_ratio: Tox21 HCT-116 p53 Agonism Beta-lactamase Assay, Ratio, Phase 3 (AID 2283596)
# Outline: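 Cells were seeded at 4000/well, rested 5 h at 37C, then dosed with DMSO compound solutions (217-fold dilution) for 16 h. CCF4-AM substrate was loaded for 2 h at room temperature, and the 460/530 nm emission ratio was fitted for gain of signal versus DMSO.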
# [7] = TOX21_p53_BLA_p4_viability: Viability Assessment in the Tox21 HCT-116 p53 Agonism Beta-lactamase Assay, Phase 4 (AID 2283597);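 also: hits lower the luminescence signal meaning cytotoxicity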
# Outline: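 4000 HCT116 cells per well; 5 h attachment; compounds from DMSO, 217-fold dilution; 16 h at 37C. Then CCF4-AM, 2 h RT, followed by CellTiter-Glo, 30 min RT, luminescence. Decrease = cytotoxicity.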
# [8] = target: Cellular tumor antigen p53 (Homo sapiens) (UniProt P04637); test: TOX21_p53_BLA_p5_ratio: Tox21 HCT-116 p53 Agonism Beta-lactamase Assay, Ratio, Phase 5 (AID 2283599)
# Outline: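 Beta-lactamase reporter ratio (blue 460 nm over green 530 nm, 405 nm excitation) after 2 h CCF4-AM loading, in HCT-116 cells exposed 16 h at 37 C to compounds pinned at 217-fold dilution. Increases relative to DMSO baseline scored.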
# [9] = TOX21_p53_BLA_p5_viability: Viability Assessment in the Tox21 HCT-116 p53 Agonism Beta-lactamase Assay, Phase 5 (AID 2283600)
# Outline: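 Decreased CellTiter-Glo luminescence denotes lost viability. Exposure: 16 h at 37C, 5% CO2, with compounds from DMSO stocks diluted 217-fold in wells of 4000 cells.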
# [10] = Tanguay_ZF_120hpf_YSE_legacy: (Legacy) Oregon State University Tanguay Lab 120 Hour Post-fertilization zebrafish Assay for Yolk Sac Edema (AID 2283634);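 also: actives raise the incidence of yolk sac edema above the DMSO baseline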
# Outline: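 Dechorionated Tropical 5D wild-type zebrafish embryos were exposed statically, one per well, from 6 to 120 hpf at 28C in 0.64% DMSO. Yolk sac edema was scored present/absent by brightfield at 120 hpf, and dead embryos were excluded.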
# [11] = Tanguay_ZF_120hpf_JAW_legacy: (Legacy) Oregon State University Tanguay Lab 120 Hour Post-fertilization zebrafish Assay for Jaw Malformation (AID 2283638);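 also: active means more embryos with jaw malformation than DMSO controls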
# Outline: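 Dechorionated Tropical 5D wild-type zebrafish embryos, one per well, exposed statically from 6 hpf to 120 hpf at 28C in 0.64% DMSO. Jaw malformation was scored by brightfield microscopy as present or absent. It was not scored in dead embryos.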
# [12] = target: Cellular tumor antigen p53 (Homo sapiens) (UniProt P04637); test: TOX21_p53_BLA_p4_ratio: Tox21 HCT-116 p53 Agonism Beta-lactamase Assay, Ratio, Phase 4 (AID 2283601)
# Outline: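 Signal is the blue/green (460nm/530nm) ratio of cleaved versus uncleaved CCF4-AM substrate, read after 2 h substrate loading. Cells were HCT116 carrying the p53-responsive beta-lactamase reporter, dosed 16 h at 37C, 5% CO2; CellTiter-Glo measured in parallel.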
# [13] = Tanguay_ZF_120hpf_EYE_legacy: (Legacy) Oregon State University Tanguay Lab 120 Hour Post-fertilization zebrafish Assay for Eye Malformation (AID 2283636);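 also: binary presence or absence of eye malformation scored by brightfield in 120 hpf larvae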
# Outline: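 Binary brightfield scoring of eye defects at 120 hpf after static exposure from 6 hpf of single pronase-dechorionated wild-type embryos (28C, 0.64% DMSO). Non-mortality endpoints omitted where embryos died; fit vs DMSO.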
# [14] = Tanguay_ZF_120hpf_AXIS_legacy: (Legacy) Oregon State University Tanguay Lab 120 Hour Post-fertilization zebrafish Assay for Body Axis Malformation (AID 2283635);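 also: potency for an increased fraction of larvae scored with body axis malformation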
# Outline: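 Dechorionated wild-type Tropical 5D zebrafish embryos, one per well, statically exposed from 6 hpf to 120 hpf at 28C in 0.64% DMSO final. Body axis malformation scored present/absent by brightfield microscopy at 120 hpf; dead embryos excluded.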
compound,measurement,setting,value
CCCCCCCCCCCCO,AC50,[1],inconclusive: 1.19 µM and inconclusive: 49.5 µM
same,AC50,[2],inconclusive: 171 µM
same,AC50,[3],inconclusive: 1.66 nM
same,AC50,[4],inconclusive: 46.4 µM
same,AC50,[5],inconclusive: 46.4 µM
same,AC50,[6],inconclusive: 61.7 µM
same,AC50,[7],inconclusive: 45.6 µM and inconclusive: 46.4 µM
same,AC50,[8],inconclusive: 45.6 µM
same,outcome,[9],inactive
c1ccc2occc2c1,AC50,[10],inconclusive: 7.44 µM
CCO[Si](CCCNC(N)=O)(OCC)OCC,AC50,[10],inconclusive: 3.97 µM
COC(=O)c1ccc(C(=O)OC)cc1,AC50,[11],active: 32.7 µM
Cc1ccc2n[nH]nc2c1,AC50,[2],inconclusive: 100 µM
Cc1ccc(N)c([N+](=O)[O-])c1,AC50,[2],inconclusive: 100 µM
CCCCOC(=O)CCC(C)=O,AC50,[2],inconclusive: 100 µM
Cn1ccnc1,AC50,[2],inconclusive: 100 µM
c1ccc2ccccc2c1,AC50,[2],inconclusive: 0.0823 µM
same,AC50,[3],inconclusive: 45.9 µM and inconclusive: 23 µM
same,AC50,[4],inconclusive: 45.9 µM
same,AC50,[5],inconclusive: 142 nM and inconclusive: 23 µM
same,outcome,[5],inactive
same,AC50,[6],inconclusive: 23 µM
same,AC50,[12],inconclusive: 46.1 µM and inconclusive: 45.9 µM
same,AC50,[10],inconclusive: 2.73 µM
same,AC50,[13],inconclusive: 59.8 µM
CCC(=O)OCC=Cc1ccccc1,outcome,[2],inactive
CCCC(C)CCC(C)=O (configuration not stated),outcome,[2],inactive
CCn1c2ccccc2c2cc(N)ccc21,outcome,[2],inactive
same,AC50,[3],inconclusive: 45.7 µM and inconclusive: 46.1 µM
same,AC50,[4],active: 65.1 µM and active: 74.2 µM
same,outcome,[4],inactive
same,AC50,[6],active: 68 µM
same,AC50,[12],active: 64 µM
C[C@]12CC[C@@H]3c4ccc(O)cc4CC[C@H]3[C@@H]1CC[C@@H]2O,AC50,[2],inconclusive: 3.79 µM
same,AC50,[3],inconclusive: 46.1 µM and inconclusive: 46 µM
same,AC50,[4],active: 29 µM and active: 16.7 µM
same,outcome,[4],inactive
same,AC50,[5],inconclusive: 46.1 µM and inconclusive: 23 µM
same,AC50,[6],active: 32 µM and active: 34.9 µM
same,AC50,[9],inconclusive: 46 µM and inconclusive: 23 µM
same,outcome,[9],inactive
same,AC50,[12],active: 31.4 µM and active: 17.7 µM and active: 15.6 µM
same,AC50,[14],inconclusive: 86.7 µM
OCCc1ccncc1,AC50,[2],inconclusive: 100 µM
O=C(Nc1ccccc1SSc1ccccc1NC(=O)c1ccccc1)c1ccccc1,AC50,[2],inconclusive: 100 µM
same,AC50,[3],inconclusive: 46.1 µM and inconclusive: 46.3 µM
same,AC50,[4],active: 58.3 µM and active: 56.6 µM
same,AC50,[5],inconclusive: 46.3 µM
same,outcome,[5],inactive
same,AC50,[6],active: 72.5 µM
same,AC50,[7],inconclusive: 46.1 µM
same,outcome,[7],inactive
same,AC50,[8],active: 60 µM and active: 53.4 µM
same,AC50,[9],inconclusive: 15.5 µM
same,AC50,[12],active: 65.5 µM and active: 56.9 µM
O=C1OC(=O)c2ccc3c4c(ccc1c24)C(=O)OC3=O,outcome,[2],inactive
Oc1cccc2c(O)cccc12,AC50,[2],inconclusive: 170 µM
S=C(NC1CCCCC1)NC1CCCCC1,outcome,[2],inactive

# For convenience, some entries already given.
compound,measurement,setting,value
C[C@]12CC[C@@H]3c4ccc(O)cc4CC[C@H]3[C@@H]1CC[C@@H]2O,AC50,[4],active: 29 µM and active: 16.7 µM
same,outcome,[4],inactive
same,AC50,[5],inconclusive: 46.1 µM and inconclusive: 23 µM
same,AC50,[6],active: 32 µM and active: 34.9 µM
same,AC50,[9],inconclusive: 46 µM and inconclusive: 23 µM
same,outcome,[9],inactive
same,AC50,[12],active: 31.4 µM and active: 17.7 µM and active: 15.6 µM
same,AC50,[14],inconclusive: 86.7 µM
OCCc1ccncc1,AC50,[2],inconclusive: 100 µM
O=C(Nc1ccccc1SSc1ccccc1NC(=O)c1ccccc1)c1ccccc1,AC50,[2],inconclusive: 100 µM
same,AC50,[3],inconclusive: 46.1 µM and inconclusive: 46.3 µM
same,AC50,[4],active: 58.3 µM and active: 56.6 µM
same,AC50,[5],inconclusive: 46.3 µM
same,outcome,[5],inactive
same,AC50,[6],active: 72.5 µM
same,AC50,[7],inconclusive: 46.1 µM
